Measured values from PMC11251733.
These are yes or no findings as the source states them, for the method shown. In cells and extracts the contact can be indirect. Here binding means that the protein was enriched with, or labelled near, the bait; the list need not be complete. Tags and fused reporters may be left off the sequences shown.

Amino acid sequences for entries named in this document (tags omitted).
UniProt Q9ULT8: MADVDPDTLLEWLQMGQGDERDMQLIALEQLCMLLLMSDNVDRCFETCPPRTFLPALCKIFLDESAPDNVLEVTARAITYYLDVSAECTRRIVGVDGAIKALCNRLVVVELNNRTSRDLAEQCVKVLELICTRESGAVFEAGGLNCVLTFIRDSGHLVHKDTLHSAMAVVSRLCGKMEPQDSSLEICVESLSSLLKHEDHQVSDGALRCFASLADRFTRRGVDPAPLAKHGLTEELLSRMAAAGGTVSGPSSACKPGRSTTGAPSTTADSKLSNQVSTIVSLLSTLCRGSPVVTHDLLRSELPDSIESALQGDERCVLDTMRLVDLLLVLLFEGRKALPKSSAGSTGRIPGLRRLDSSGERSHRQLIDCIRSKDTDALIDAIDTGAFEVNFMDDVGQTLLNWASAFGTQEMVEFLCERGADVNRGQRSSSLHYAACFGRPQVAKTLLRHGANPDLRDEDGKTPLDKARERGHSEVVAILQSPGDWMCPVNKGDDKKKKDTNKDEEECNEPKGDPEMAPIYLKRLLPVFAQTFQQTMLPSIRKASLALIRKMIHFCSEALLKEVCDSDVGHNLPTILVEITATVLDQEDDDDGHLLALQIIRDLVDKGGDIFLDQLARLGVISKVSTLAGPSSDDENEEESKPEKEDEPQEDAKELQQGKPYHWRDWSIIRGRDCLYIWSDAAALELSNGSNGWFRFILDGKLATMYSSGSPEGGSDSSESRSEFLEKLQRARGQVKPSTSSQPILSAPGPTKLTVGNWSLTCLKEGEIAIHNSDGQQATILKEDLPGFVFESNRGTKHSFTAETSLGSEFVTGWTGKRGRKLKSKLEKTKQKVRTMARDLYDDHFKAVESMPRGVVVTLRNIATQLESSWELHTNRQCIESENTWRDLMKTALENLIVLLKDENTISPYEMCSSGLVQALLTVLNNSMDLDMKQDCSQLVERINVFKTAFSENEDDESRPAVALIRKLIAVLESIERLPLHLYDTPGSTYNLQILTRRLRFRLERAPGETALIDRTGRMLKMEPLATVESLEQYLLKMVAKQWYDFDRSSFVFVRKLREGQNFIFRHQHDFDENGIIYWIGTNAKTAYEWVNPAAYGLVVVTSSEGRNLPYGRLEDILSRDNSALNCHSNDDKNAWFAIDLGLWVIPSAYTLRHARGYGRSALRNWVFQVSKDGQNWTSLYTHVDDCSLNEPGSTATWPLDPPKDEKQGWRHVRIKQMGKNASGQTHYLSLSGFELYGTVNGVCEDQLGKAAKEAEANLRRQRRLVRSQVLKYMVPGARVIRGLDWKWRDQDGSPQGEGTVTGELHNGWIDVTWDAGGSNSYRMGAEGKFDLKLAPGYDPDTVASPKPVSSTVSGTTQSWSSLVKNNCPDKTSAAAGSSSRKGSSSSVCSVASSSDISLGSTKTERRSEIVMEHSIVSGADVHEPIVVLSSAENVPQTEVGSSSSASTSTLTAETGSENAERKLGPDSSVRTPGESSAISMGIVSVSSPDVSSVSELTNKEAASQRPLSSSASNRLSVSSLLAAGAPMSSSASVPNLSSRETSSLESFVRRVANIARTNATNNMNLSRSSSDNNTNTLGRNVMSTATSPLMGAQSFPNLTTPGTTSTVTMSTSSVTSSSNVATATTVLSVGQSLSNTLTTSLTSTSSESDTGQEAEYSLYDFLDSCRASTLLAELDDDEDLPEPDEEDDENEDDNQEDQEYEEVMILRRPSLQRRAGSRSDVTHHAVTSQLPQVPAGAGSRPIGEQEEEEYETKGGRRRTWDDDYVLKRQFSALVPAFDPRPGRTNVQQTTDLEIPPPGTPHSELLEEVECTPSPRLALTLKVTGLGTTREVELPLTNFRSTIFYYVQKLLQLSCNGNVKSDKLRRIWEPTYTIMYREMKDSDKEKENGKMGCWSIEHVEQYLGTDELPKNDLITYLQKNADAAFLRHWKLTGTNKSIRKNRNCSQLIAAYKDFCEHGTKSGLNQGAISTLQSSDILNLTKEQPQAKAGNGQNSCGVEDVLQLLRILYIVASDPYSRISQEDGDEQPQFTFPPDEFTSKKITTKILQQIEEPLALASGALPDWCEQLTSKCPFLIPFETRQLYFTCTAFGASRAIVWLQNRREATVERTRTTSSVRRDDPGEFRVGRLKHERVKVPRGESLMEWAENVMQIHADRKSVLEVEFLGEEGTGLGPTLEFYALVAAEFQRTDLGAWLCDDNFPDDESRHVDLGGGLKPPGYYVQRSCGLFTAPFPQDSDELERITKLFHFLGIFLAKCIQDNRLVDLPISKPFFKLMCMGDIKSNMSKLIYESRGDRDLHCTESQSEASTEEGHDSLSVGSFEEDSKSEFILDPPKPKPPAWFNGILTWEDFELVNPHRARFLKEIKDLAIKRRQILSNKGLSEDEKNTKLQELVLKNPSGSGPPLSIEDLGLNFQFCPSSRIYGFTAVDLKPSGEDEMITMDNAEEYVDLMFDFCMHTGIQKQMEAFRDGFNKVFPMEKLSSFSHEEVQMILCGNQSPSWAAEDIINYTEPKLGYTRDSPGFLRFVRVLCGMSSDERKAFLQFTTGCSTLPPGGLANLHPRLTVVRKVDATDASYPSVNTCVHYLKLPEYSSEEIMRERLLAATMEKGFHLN

Target: T1, exosomal GP73-c-FLAG fusion protein (UniProt Q8NBJ4)
T1 sequence: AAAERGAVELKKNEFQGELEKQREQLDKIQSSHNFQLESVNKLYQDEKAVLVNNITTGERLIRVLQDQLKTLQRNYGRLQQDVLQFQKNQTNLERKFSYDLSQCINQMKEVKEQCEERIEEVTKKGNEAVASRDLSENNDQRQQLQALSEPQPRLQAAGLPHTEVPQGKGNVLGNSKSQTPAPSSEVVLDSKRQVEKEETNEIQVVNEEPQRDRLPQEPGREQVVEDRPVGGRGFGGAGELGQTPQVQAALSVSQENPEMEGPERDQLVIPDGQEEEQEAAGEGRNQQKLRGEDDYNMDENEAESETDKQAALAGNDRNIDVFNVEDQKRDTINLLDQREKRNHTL
Test: affinity purification with mass spectrometry; HUVECs treated for 24 h with exosomes of HepG2 cells expressing GP73-c-FLAG (or FLAG alone); anti-FLAG M2 gel, SDS-PAGE, LC-MS/MS

In the case of “HECTD1 (from UniProt Q9ULT8 1-2610) (enzyme)”, the binding is reported as “binds”.
